Results reported in PMC9418311.
Results are given in words; binding and its absence hold for the method and conditions named. In cells and extracts the contact can be indirect. Some entries that bind do so weakly or less than the wild type. Values belong to the molecule of their own block, whether it stands above or below them.

Protein sequences, listed by entry. Tags and fused reporters are not part of them.
UniProt Q96HW7: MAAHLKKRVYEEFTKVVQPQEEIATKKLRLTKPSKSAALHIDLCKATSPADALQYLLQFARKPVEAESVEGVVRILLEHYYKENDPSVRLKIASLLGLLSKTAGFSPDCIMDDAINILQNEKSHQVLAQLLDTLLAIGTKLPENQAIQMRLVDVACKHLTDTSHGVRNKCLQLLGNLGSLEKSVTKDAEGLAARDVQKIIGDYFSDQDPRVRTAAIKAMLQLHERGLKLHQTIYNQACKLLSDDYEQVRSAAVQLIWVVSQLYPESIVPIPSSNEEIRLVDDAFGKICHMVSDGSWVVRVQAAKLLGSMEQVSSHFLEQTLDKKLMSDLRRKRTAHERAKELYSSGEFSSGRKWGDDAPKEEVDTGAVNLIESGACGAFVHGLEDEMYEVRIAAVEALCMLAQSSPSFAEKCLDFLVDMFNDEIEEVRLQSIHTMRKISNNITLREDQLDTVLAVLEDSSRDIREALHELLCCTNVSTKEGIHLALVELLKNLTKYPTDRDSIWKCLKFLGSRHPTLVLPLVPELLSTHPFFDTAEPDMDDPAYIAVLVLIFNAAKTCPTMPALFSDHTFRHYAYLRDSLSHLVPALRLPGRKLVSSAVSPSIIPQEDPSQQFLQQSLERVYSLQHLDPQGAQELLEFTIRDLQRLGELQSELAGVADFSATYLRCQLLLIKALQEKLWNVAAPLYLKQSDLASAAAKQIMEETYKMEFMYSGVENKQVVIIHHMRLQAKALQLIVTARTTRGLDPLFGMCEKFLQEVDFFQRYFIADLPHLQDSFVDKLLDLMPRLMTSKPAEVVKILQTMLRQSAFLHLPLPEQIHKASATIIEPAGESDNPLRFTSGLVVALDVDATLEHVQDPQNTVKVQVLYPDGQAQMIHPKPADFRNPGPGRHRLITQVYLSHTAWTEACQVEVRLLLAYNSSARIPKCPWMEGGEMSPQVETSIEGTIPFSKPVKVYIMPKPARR

How the values were obtained:
[1] = biological target: T1, BRCA1-associated ATM activator 1 (BRAT1), endogenous wild type (human (endogenous in U2OS, fibroblasts and LCLs)) (UniProt Q6PJG6); assay: co-IP; endogenous bait (BRAT1, INTS11 or INTS4) immunoprecipitated with 1 ug antibody overnight at 4 C from U2OS lysate in EBC buffer, protein A/G resin, Western blot; BRAT1-/- cells as control; more input material for INTS1 and INTS4
T1 sequence: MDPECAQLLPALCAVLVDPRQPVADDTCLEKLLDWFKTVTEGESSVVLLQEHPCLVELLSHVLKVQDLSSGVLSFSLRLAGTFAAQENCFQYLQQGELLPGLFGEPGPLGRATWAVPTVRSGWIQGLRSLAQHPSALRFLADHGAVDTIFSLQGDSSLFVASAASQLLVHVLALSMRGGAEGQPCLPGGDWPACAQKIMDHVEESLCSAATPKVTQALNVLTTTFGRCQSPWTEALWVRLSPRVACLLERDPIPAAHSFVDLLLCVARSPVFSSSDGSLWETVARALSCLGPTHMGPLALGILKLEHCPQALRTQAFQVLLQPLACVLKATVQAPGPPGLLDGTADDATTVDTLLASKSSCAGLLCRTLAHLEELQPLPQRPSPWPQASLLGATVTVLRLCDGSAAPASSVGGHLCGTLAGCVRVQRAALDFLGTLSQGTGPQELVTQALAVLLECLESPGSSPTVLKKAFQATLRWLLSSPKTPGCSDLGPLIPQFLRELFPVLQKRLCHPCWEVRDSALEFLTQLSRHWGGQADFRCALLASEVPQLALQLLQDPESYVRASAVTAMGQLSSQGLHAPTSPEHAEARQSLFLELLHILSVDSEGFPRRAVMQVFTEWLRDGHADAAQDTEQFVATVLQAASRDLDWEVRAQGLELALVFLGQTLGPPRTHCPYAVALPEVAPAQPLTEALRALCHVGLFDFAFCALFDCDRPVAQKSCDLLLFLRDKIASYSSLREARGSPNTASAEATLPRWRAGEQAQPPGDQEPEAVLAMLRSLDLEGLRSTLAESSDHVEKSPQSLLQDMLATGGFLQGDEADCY

[2] = biological target: Integrator complex subunit INTS4, endogenous (human (endogenous in U2OS)) (UniProt Q96HW7); assay: as above

binding [1]: binds weakly
Molecule: Integrator complex subunit INTS4, endogenous (from UniProt Q96HW7 1-963)

binding [2]: binds weakly
B1: BRCA1-associated ATM activator 1 (BRAT1), endogenous wild type (protein, UniProt Q6PJG6-1 1-821)
chain: T1 sequence
